Experimental data from publication PMC10648221.
Results are given in words; binding and its absence hold for the method and conditions named. In cells and extracts the contact can be indirect. Here binding means that the protein was enriched with, or labelled near, the bait; the list need not be complete.

Amino acid sequences for entries named in this document (tags omitted). Residues count along the entry.
UniProt Q7Z494: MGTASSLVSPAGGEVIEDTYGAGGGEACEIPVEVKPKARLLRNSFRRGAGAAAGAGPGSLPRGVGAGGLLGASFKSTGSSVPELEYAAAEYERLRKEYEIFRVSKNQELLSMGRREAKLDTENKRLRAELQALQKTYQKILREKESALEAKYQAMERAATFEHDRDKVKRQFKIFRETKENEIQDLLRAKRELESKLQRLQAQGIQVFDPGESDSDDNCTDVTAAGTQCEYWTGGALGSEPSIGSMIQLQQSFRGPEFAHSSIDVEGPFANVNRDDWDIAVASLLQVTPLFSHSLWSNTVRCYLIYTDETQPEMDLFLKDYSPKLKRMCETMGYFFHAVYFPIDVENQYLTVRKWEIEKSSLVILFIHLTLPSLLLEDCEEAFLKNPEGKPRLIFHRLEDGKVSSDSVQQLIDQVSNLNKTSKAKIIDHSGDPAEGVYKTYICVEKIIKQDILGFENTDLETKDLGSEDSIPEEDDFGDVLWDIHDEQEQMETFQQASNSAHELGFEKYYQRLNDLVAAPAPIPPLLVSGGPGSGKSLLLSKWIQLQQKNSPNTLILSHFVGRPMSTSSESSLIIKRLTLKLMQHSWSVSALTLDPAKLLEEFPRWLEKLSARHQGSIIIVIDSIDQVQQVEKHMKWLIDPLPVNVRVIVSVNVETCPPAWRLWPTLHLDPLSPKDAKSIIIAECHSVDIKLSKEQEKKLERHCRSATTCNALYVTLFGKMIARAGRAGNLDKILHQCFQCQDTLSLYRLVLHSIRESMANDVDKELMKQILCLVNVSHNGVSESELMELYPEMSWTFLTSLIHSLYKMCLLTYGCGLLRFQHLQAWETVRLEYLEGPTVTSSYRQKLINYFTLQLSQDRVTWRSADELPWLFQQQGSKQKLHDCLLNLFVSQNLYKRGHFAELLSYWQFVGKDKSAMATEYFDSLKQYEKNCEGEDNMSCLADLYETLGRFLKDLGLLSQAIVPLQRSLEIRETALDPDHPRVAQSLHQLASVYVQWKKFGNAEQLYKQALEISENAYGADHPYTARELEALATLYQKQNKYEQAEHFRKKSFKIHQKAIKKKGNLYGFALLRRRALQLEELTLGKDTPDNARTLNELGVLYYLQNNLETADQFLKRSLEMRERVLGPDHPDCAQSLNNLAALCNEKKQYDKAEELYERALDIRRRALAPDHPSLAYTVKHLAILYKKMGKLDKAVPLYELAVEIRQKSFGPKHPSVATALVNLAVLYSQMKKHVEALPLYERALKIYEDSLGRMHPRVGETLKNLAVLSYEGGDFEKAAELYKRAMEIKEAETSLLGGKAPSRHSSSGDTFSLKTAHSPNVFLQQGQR
UniProt P18510, residues 26-177: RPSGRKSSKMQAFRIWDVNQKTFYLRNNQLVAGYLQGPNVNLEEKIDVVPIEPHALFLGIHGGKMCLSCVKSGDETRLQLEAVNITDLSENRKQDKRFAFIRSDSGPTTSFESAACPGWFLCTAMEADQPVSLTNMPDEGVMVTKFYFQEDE
UniProt P00441: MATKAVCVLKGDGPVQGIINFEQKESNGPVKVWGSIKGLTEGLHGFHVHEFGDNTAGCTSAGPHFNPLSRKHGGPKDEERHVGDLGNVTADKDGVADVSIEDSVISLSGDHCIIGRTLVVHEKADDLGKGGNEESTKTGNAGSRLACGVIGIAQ
UniProt Q9Y4B6: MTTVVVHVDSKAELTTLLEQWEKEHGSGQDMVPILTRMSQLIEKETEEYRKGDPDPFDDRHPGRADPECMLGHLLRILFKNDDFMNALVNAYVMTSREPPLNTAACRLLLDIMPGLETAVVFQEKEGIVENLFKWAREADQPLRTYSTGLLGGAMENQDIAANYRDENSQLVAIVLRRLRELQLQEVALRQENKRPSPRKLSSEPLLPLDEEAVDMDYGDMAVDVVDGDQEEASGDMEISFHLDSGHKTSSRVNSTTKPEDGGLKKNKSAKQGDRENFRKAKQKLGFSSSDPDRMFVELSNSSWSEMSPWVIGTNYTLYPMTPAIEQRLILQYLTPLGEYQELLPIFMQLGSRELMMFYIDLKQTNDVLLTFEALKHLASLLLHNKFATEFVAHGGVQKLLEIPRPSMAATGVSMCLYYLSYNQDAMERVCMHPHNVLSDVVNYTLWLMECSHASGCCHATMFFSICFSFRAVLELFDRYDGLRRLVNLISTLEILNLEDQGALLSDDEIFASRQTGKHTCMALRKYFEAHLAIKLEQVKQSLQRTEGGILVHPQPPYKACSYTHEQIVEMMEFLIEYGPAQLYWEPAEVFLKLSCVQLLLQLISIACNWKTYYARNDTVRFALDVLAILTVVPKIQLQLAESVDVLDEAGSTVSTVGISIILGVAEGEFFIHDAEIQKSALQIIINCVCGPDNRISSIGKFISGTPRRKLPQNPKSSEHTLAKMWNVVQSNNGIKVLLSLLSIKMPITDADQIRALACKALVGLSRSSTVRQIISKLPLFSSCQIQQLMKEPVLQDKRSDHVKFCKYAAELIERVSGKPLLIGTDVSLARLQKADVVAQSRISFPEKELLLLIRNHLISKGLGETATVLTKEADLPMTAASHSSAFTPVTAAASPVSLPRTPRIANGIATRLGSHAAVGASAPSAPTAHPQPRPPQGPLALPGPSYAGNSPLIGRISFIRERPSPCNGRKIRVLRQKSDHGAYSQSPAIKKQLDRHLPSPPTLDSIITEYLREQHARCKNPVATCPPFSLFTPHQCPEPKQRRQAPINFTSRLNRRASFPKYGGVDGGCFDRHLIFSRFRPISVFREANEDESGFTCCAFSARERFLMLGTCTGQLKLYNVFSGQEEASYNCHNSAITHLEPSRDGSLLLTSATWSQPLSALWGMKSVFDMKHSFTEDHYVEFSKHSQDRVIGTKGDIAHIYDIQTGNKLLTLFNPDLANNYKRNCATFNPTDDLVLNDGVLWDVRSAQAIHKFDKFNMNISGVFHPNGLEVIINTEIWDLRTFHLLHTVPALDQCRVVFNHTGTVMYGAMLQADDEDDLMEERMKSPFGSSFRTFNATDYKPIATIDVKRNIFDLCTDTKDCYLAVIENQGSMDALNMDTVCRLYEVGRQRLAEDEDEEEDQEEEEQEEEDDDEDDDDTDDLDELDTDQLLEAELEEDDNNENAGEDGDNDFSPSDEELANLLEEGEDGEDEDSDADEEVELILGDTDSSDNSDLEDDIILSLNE

T1: SPRY domain-containing protein 7 (human) (UniProt Q5W111)
T1 sequence: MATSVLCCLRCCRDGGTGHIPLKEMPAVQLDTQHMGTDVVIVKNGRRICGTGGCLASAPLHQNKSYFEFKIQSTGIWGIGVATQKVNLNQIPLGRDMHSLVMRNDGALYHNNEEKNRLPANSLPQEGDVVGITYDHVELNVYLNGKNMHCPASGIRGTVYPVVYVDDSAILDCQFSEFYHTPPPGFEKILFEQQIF

B1: CAPNS2 (protein, UniProt Q96L46 1-248)
chain: MFLAKALLEGADRGLGEALGGLFGGGGQRREGGGRNIGGIVGGIVNFISEAAAAQYTPEPPPTQQHFTSVEASESEEVRRFRQQFTQLAGPDMEVGATDLMNILNKVLSKHKDLKTDGFSLDTCRSIVSVMDSDTTGKLGFEEFKYLWNNIKKWQCVYKQYDRDHSGSLGSSQLRGALQAAGFQLNEQLYQMIVRRYANEDGDMDFNNFISCLVRLDAMFRAFKSLDRDRDGLIQVSIKEWLQLTMYS
B2: SERPINB5 (protein, UniProt P36952 1-375)
chain: MDALQLANSAFAVDLFKQLCEKEPLGNVLFSPICLSTSLSLAQVGAKGDTANEIGQVLHFENVKDVPFGFQTVTSDVNKLSSFYSLKLIKRLYVDKSLNLSTEFISSTKRPYAKELETVDFKDKLEETKGQINNSIKDLTDGHFENILADNSVNDQTKILVVNAAYFVGKWMKKFSESETKECPFRVNKTDTKPVQMMNMEATFCMGNIDSINCKIIELPFQNKHLSMFILLPKDVEDESTGLEKIEKQLNSESLSQWTNPSTMANAKVKLSIPKFKVEKMIDPKACLENLGLKHIFSEDTSDFSGMSETKGVALSNVIHKVCLEITEDGGDSIEVPGARILQHKDELNADHPFIYIIRHNKTRNIIFFGKFCSP
B3: TYMP (protein, UniProt P19971 11-482)
chain: APPAPGDFSGEGSQGLPDPSPEPKQLPELIRMKRDGGRLSEADIRGFVAAVVNGSAQGAQIGAMLMAIRLRGMDLEETSVLTQALAQSGQQLEWPEAWRQQLVDKHSTGGVGDKVSLVLAPALAACGCKVPMISGRGLGHTGGTLDKLESIPGFNVIQSPEQMQVLLDQAGCCIVGQSEQLVPADGILYAARDVTATVDSLPLITASILSKKLVEGLSALVVDVKFGGAAVFPNQEQARELAKTLVGVGASLGLRVAAALTAMDKPLGRCVGHALEVEEALLCMDGAGPPDLRDLVTTLGGALLWLSGHAGTQAQGAARVAAALDDGSALGRFERMLAAQGVDPGLARALCSGSPAERRQLLPRAREQEELLAPADGTVELVRALPLALVLHELGAGRSRAGEPLRLGVGAELLVDVGQRLRRGTPWLRVHRDGPALSGPQSRALQEALVLSDRAPFAAPSPFAELVLPPQQ
B4: A2ML1 (protein, UniProt A8K2U0 18-1454)
chain: EELPNYLVTLPARLNFPSVQKVCLDLSPGYSDVKFTVTLETKDKTQKLLEYSGLKKRHLHCISFLVPPPAGGTEEVATIRVSGVGNNISFEEKKKVLIQRQGNGTFVQTDKPLYTPGQQVYFRIVTMDSNFVPVNDKYSMVELQDPNSNRIAQWLEVVPEQGIVDLSFQLAPEAMLGTYTVAVAEGKTFGTFSVEEYVLPKFKVEVVEPKELSTVQESFLVKICCRYTYGKPMLGAVQVSVCQKANTYWYREVEREQLPDKCRNLSGQTDKTGCFSAPVDMATFDLIGYAYSHQINIVATVVEEGTGVEANATQNIYISPQMGSMTFEDTSNFYHPNFPFSGKIRVRGHDDSFLKNHLVFLVIYGTNGTFNQTLVTDNNGLAPFTLETSGWNGTDVSLEGKFQMEDLVYNPEQVPRYYQNAYLHLRPFYSTTRSFLGIHRLNGPLKCGQPQEVLVDYYIDPADASPDQEISFSYYLIGKGSLVMEGQKHLNSKKKGLKASFSLSLTFTSRLAPDPSLVIYAIFPSGGVVADKIQFSVEMCFDNQVSLGFSPSQQLPGAEVELQLQAAPGSLCALRAVDESVLLLRPDRELSNRSVYGMFPFWYGHYPYQVAEYDQCPVSGPWDFPQPLIDPMPQGHSSQRSIIWRPSFSEGTDLFSFFRDVGLKILSNAKIKKPVDCSHRSPEYSTAMGAGGGHPEAFESSTPLHQAEDSQVRQYFPETWLWDLFPIGNSGKEAVHVTVPDAITEWKAMSFCTSQSRGFGLSPTVGLTAFKPFFVDLTLPYSVVRGESFRLTATIFNYLKDCIRVQTDLAKSHEYQLESWADSQTSSCLCADDAKTHHWNITAVKLGHINFTISTKILDSNEPCGGQKGFVPQKGRSDTLIKPVLVKPEGVLVEKTHSSLLCPKGKVASESVSLELPVDIVPDSTKAYVTVLGDIMGTALQNLDGLVQMPSGCGEQNMVLFAPIIYVLQYLEKAGLLTEEIRSRAVGFLEIGYQKELMYKHSNGSYSAFGERDGNGNTWLTAFVTKCFGQAQKFIFIDPKNIQDALKWMAGNQLPSGCYANVGNLLHTAMKGGVDDEVSLTAYVTAALLEMGKDVDDPMVSQGLRCLKNSATSTTNLYTQALLAYIFSLAGEMDIRNILLKQLDQQAIISGESIYWSQKPTPSSNASPWSEPAAVDVELTAYALLAQLTKPSLTQKEIAKATSIVAWLAKQHNAYGGFSSTQDTVVALQALAKYATTAYMPSEEINLVVKSTENFQRTFNIQSVNRLVFQQDTLPNVPGMYTLEASGQGCVYVQTVLRYNILPPTNMKTFSLSVEIGKARCEQPTSPRSLTLTIHTSYVGSRSSSNMAIVEVKMLSGFSPMEGTNQLLLQQPLVKKVEFGTDTLNIYLDELIKNTQTYTFTISQSVLVTNLKPATIKVYDYYLPDEQATIQYSDPCE
B5: ARG1 (protein, UniProt P05089 1-322)
chain: MSAKSRTIGIIGAPFSKGQPRGGVEEGPTVLRKAGLLEKLKEQECDVKDYGDLPFADIPNDSPFQIVKNPRSVGKASEQLAGKVAEVKKNGRISLVLGGDHSLAIGSISGHARVHPDLGVIWVDAHTDINTPLTTTSGNLHGQPVSFLLKELKGKIPDVPGFSWVTPCISAKDIVYIGLRDVDPGEHYILKTLGIKYFSMTEVDRLGIGKVMEETLSYLLGRKKRPIHLSFDVDGLDPSFTPATGTPVVGGLTYREGLYITEEIYKTGLLSGLDIMEVNPSLGKTPEEVTRTVNTAVAITLACFGLAREGNHKPIDYLNPPK
B6: BLMH (protein, UniProt Q13867 1-455)
chain: MSSSGLNSEKVAALIQKLNSDPQFVLAQNVGTTHDLLDICLKRATVQRAQHVFQHAVPQEGKPITNQKSSGRCWIFSCLNVMRLPFMKKLNIEEFEFSQSYLFFWDKVERCYFFLSAFVDTAQRKEPEDGRLVQFLLMNPANDGGQWDMLVNIVEKYGVIPKKCFPESYTTEATRRMNDILNHKMREFCIRLRNLVHSGATKGEISATQDVMMEEIFRVVCICLGNPPETFTWEYRDKDKNYQKIGPITPLEFYREHVKPLFNMEDKICLVNDPRPQHKYNKLYTVEYLSNMVGGRKTLYNNQPIDFLKKMVAASIKDGEAVWFGCDVGKHFNSKLGLSDMNLYDHELVFGVSLKNMNKAERLTFGESLMTHAMTFTAVSEKDDQDGAFTKWRVENSWGEDHGHKGYLCMTDEWFSEYVYEVVVDRKHVPEEVLAVLEQEPIILPAWDPMGALAE

molecular target: T1, SPRY domain-containing protein 7 (human); test: affinity purification with mass spectrometry; IP with anti-SPRYD7 monoclonal antibody and Protein G agarose from 3 mg RIPA protein extract of KM12C and KM12SM cells stably overexpressing SPRYD7, 4 °C, washed 4 times with RIPA; LC-MS/MS; proteins on the precleaning beads as negative control; CRAPome filter

binding, binds:
NPHP3 (from UniProt Q7Z494 1-1330)
IL1RN (from UniProt P18510 26-177)
SOD1 (from UniProt P00441 1-154)
VPRBP (from UniProt Q9Y4B6 1-1507)
B1
B2
B3
B4
B5
B6
